Data on 24 compounds can be found in PubChem BioAssay AID248 (DTP/NCI, 2004).

The test system of this experiment is L1210 leukemia ip in BDF1 mice, survival T/C. Nature of the experiment: NCI In Vivo Anticancer Drug Screen. Data for tumor model L1210 Leukemia (intraperitoneal) in B6D2F1 (BDF1) mice. The settings on record: T/C endpoint: mean survival time, higher T/C = longer survival.
Setting [1] is: dose: 200.0 mg/kg/injection, schedule: Q01DX009 (ip), vehicle: saline with Tween-80.
Setting [2] is: dose: 400.0 mg/kg/injection, schedule: Q01DX009 (ip), vehicle: saline with Tween-80.
The mark [3] stands for this setting: dose: 400.0 mg/kg/injection, schedule: Q01DX009 (ip), vehicle: Klucel (hydroxypropylcellulose) (HPC).
Setting [4] is: dose: 100.0 mg/kg/injection, schedule: Q01DX009 (ip), vehicle: Klucel (hydroxypropylcellulose) (HPC).
Setting [5] is: dose: 200.0 mg/kg/injection, schedule: Q01DX009 (ip), vehicle: Klucel (hydroxypropylcellulose) (HPC).
Setting [6] is: dose: 100.0 mg/kg/injection, schedule: Q01DX009 (ip), vehicle: saline with Tween-80.
[7] abbreviates: dose: 400.0 mg/kg/injection, schedule: Q01DX001 (ip), vehicle: saline.
Where [8] appears, read: dose: 400.0 mg/kg/injection, schedule: Q04DX003 (ip), vehicle: Klucel (hydroxypropylcellulose) (HPC).
[9] abbreviates: dose: 200.0 mg/kg/injection, schedule: Q01DX001 (ip), vehicle: carboxymethylcellulose (CMC).
Where [10] appears, read: dose: 400.0 mg/kg/injection, schedule: Q01DX001 (ip), vehicle: carboxymethylcellulose (CMC).

The list is a part of this screen's results and no random one: it is rich in T/C values a quarter to a half above the control, in often repeated tests (any T/C) and in doses without a T/C. Other doses and runs of a compound stand elsewhere. T/C gives the treated animals as a percentage of the vehicle group. Some doses have a count of surviving animals in place of a T/C: the source files T/C as zero there, which appears to mark a toxic dose or a test without result, not a measured value. Some doses without a T/C left all or most animals alive at the check, yet need not have been tolerated: survival well below the control is almost never listed, so the zero probably covers shortened survival too. Counts of survivors are from the toxicity check (mostly the fifth day) where no day follows; animals may have died later. Schedule codes are those of the source, read here as Q, the interval in days (D) or hours (H), X, the number of doses. Some doses were run more than once; their values stand side by side, smallest first. For survival time, this PubChem deposit counts one and a half times the control or more as active, and values a quarter to a half above the control carry no call in these data; other NCI protocols may use other cut-offs. Some T/C values are followed by the survivors on the day toxicity was checked, most often the fifth; without a count, all were alive then.

Take `CCCCCCCCCCCCCCCCCCCCCCCCCCCCCCCS`: the survivor count (dose: 400.0 mg/kg/injection, schedule: Q01DX001 (ip), vehicle: other) is reported as 4 of 4.
Consider `N=c1c2cnn(C3OC(CO)C(O)C3O)c2ncn1N` (configuration not stated), for which the survivor count is, setting by setting: (dose: 25.0 mg/kg/injection, schedule: Q01DX009 (ip), vehicle: water) 6 of 6; (dose: 50.0 mg/kg/injection, schedule: Q01DX009 (ip), vehicle: water) 6 of 6.
`OC(c1ccccc1)(c1ccccc1)c1ccccc1`: for the setting “dose: 200.0 mg/kg/injection, schedule: Q04DX002 (ip), vehicle: Klucel (hydroxypropylcellulose) (HPC)”, the T/C was 130 % of control.
In the case of `CCCN(C(=O)c1cccc([N+](=O)[O-])c1)C(c1ccco1)P(=O)(c1ccccc1)c1ccccc1` (configuration not stated), the survivor count by setting is: (dose: 100.0 mg/kg/injection, schedule: Q04DX002 (ip), vehicle: saline with Tween-80) 3 of 3; under setting [1], 3 of 3; (dose: 200.0 mg/kg/injection, schedule: Q04DX002 (ip), vehicle: saline with Tween-80) 3 of 3; under setting [2], 3 of 3 and 6 of 6.
In the case of `CC(=O)Oc1cc(C)c(OC(C)=O)c2ccccc12`, the survivor count under setting [3] is given as 2 of 6.
Turning to `O=C(Nc1nccs1)Nc1cccc(Cl)c1Cl`, the survivor count is 2 of 6 and 3 of 6 under setting [4]; 0 of 6 under setting [5]; 0 of 6 under setting [3].
Consider `S=C(NCc1cccc(Cl)c1)Nc1ccccc1`, for which the survivor count is, setting by setting: under setting [4], 6 of 6; under setting [5], 6 of 6; under setting [3], 1 of 6.
As for `NNc1ccc(S(=O)(=O)C(F)(F)C(F)Cl)cc1` (configuration not stated), where the note is “dose: 400.0 mg/kg/injection, schedule: Q01DX009 (ip), vehicle: gum acacia”, the survivor count is 1 of 6.
For `Nc1nc2nc3c(nc2c(=O)[nH]1)CN(c1ccc(C(=O)O)cc1)C3=O`, the survivor count is reported as 6 of 6 (dose: 50.0 mg/kg/injection, schedule: Q01DX009 (ip), vehicle: saline with Tween-80); 5 of 6 under setting [6]; 2 of 6 under setting [1].
Consider `CCCCCC(=O)c1c(O)cc2c(c1O)C(=O)c1c(O)cc(O)cc1C2=O`, for which the survivor count (dose: 30.0 mg/kg/injection, schedule: Q01DX001 (ip), vehicle: saline) is reported as 6 of 6.
In the case of `CC1(C)N=C(N)N=C(N)N1c1cccc(OCCOc2ccc([N+](=O)[O-])cc2)c1`, the survivor count under setting [7] is recorded as 0 of 6.
As to `CC(=O)OC1CCC2(C)C3=C(CCC2C1(C)C)C1CCC(C(C)CCC=C(C)C)C1(C)CC3` (configuration not stated), the survivor count under setting [8] is 0 of 3.
Consider `O=C1N(Cl)C2C(N1Cl)N(Cl)C(=O)N2Cl` (configuration not stated), for which the survivor count under setting [9] is 0 of 4 and the survivor count under setting [10] was 0 of 4.
`CCCCCCCC/C=C\CCCCCCCC(=O)O.[Cu+2]`: under setting [7], the survivor count is 2 of 6.
Consider `CCN(CC)CCCC(C)Nc1cc(N)nc2nc(-c3ccc(Cl)cc3)cnc12` (configuration not stated), for which, where the note is “dose: 300.0 mg/kg/injection, schedule: Q01DX001 (ip), vehicle: saline”, the survivor count is on record as 1 of 6.
With `CCCCCn1c(C)cc(/C=C\c2ccc3cc(C)ccc3[n+]2C)c1C`, the T/C (dose: 1.0 mg/kg/injection, schedule: Q01DX009 (ip), vehicle: saline sonified) was 131 % of control [4 of 6 alive]. For the same compound, the survivor count is reported as 4 of 6 (dose: 2.0 mg/kg/injection, schedule: Q01DX009 (ip), vehicle: saline sonified); 2 of 4 (dose: 4.0 mg/kg/injection, schedule: Q01DX001 (ip), vehicle: carboxymethylcellulose (CMC)); 1 of 6 (dose: 6.25 mg/kg/injection, schedule: Q04DX003 (ip), vehicle: saline sonified); 2 of 4 (dose: 8.0 mg/kg/injection, schedule: Q01DX001 (ip), vehicle: carboxymethylcellulose (CMC)); 1 of 6 (dose: 12.5 mg/kg/injection, schedule: Q04DX003 (ip), vehicle: saline sonified); 0 of 6 (dose: 25.0 mg/kg/injection, schedule: Q04DX003 (ip), vehicle: saline sonified). Also, the survivor count (dose: 100.0 mg/kg/injection, schedule: Q04DX003 (ip), vehicle: Klucel (hydroxypropylcellulose) (HPC)) is 0 of 6; the survivor count (dose: 200.0 mg/kg/injection, schedule: Q04DX003 (ip), vehicle: Klucel (hydroxypropylcellulose) (HPC)) is 0 of 6; the survivor count under setting [8] was 0 of 6.
In the case of `CCN(CC)COC(=O)C(C)(C)C`, the survivor count (dose: 300.0 mg/kg/injection, schedule: Q01DX001 (ip), vehicle: carboxymethylcellulose (CMC)) is 1 of 6.
Turning to `CC1(C)N=C(N)N=C(N)N1c1ccc(C(=O)c2ccccc2)cc1`, the survivor count (dose: 100.0 mg/kg/injection, schedule: Q04DX003 (ip), vehicle: saline) is reported as 6 of 6.
As for `COc1ccc(OC)c(/C=N/NC(=O)C[N+](C)(C)C)c1`, under setting [1], the survivor count is given as 0 of 3.
Turning to `CCCCCCCCCCCCCC(C)NCc1ccccc1` (configuration not stated), the survivor count reads like this: (dose: 200.0 mg/kg/injection, schedule: Q01DX001 (ip), vehicle: saline) 0 of 4; under setting [7], 0 of 4; (dose: 800.0 mg/kg/injection, schedule: Q01DX001 (ip), vehicle: saline) 0 of 4.
Take `Cc1nc(C(=O)O)cs1`: the survivor count was 5 of 6 (dose: 200.0 mg/kg/injection, schedule: Q01DX009 (ip), vehicle: saline) and 2 of 6 (dose: 400.0 mg/kg/injection, schedule: Q01DX001 (ip), vehicle: acetone).
Take `Cn1c(=O)c2c(ncn2CC[n+]2cccc(C(N)=O)c2)n(C)c1=O`: for the setting “dose: 400.0 mg/kg/injection, schedule: Q04DX003 (ip), vehicle: saline”, the survivor count was 2 of 4.
Take `N/N=C(\N)c1cn(C2OC(CO)C(O)C2O)c2ncnc(N)c12` (configuration not stated): the survivor count by setting is: (dose: 10.0 mg/kg/injection, schedule: Q01DX001 (ip), vehicle: carboxymethylcellulose (CMC)) 0 of 4; (dose: 20.0 mg/kg/injection, schedule: Q01DX001 (ip), vehicle: carboxymethylcellulose (CMC)) 0 of 4; (dose: 40.0 mg/kg/injection, schedule: Q01DX001 (ip), vehicle: carboxymethylcellulose (CMC)) 0 of 4; (dose: 80.0 mg/kg/injection, schedule: Q01DX001 (ip), vehicle: carboxymethylcellulose (CMC)) 0 of 4; (dose: 100.0 mg/kg/injection, schedule: Q01DX001 (ip), vehicle: carboxymethylcellulose (CMC)) 0 of 4; under setting [9], 0 of 4. For the same compound, the survivor count under setting [10] is 0 of 4.
In the case of `NC(=O)c1cc([N+](=O)[O-])ccc1N=NN(CCCl)CCCl`, the T/C is 140 % of control under setting [6]; 132 % of control (dose: 200.0 mg/kg/injection, schedule: Q04DX003 (ip), vehicle: saline with Tween-80); 125 % of control (dose: 400.0 mg/kg/injection, schedule: Q04DX003 (ip), vehicle: saline with Tween-80); 136 % of control (dose: 600.0 mg/kg/injection, schedule: Q04DX003 (ip), vehicle: saline with Tween-80). In addition, under setting [2], the survivor count is given as 0 of 6.
